From the supplement of paper PMC8728848
This is one part of the list.

What was measured:
Assay in all cases: glycan array binding signal (z-score within array); higher = stronger binding
Details in all cases: glycan notation: IUPAC condensed, linker removed
[1] = target: Gal(b1-4)GlcNAc(b1-3)Gal(b1-4)GlcNAc(b1-6)[Gal(b1-3)]GalNAc
Method in brief: (§1)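 From the Consortium for Functional Glycomics database, 3228 arrays were curated, keeping only those whose protein sequence was available. Binding is given as a within-array Z-score averaged across arrays sharing a protein sequence and across linkers. Negative Z-scores can be read as non-binding.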

[2] = target: Gal(b1-4)GlcNAc(b1-3)Gal(b1-4)[Fuc(a1-3)]GlcNAc(b1-3)Gal(b1-4)[Fuc(a1-3)]GlcNAc
Method in brief: as §1

[3] = target: Gal(b1-4)GlcNAc(b1-3)GalNAc
Method in brief: as §1

[4] = target: Gal(b1-4)GlcNAc(b1-3)[Fuc(a1-3)GlcNAc(b1-6)]Gal(b1-4)Glc
Method in brief: as §1

[5] = target: Gal(b1-4)GlcNAc(b1-3)[Gal(b1-4)GlcNAc(b1-6)]Gal(b1-4)GlcNAc
Method in brief: as §1

[6] = target: Gal(b1-4)GlcNAc(b1-3)[GlcNAc(b1-6)]Gal(b1-4)GlcNAc
Method in brief: as §1

[7] = target: Gal(b1-4)GlcNAc(b1-6)Gal(b1-4)GlcNAc
Method in brief: as §1

[8] = target: Gal(b1-4)GlcNAc(b1-6)GalNAc
Method in brief: as §1

[9] = target: Gal(b1-4)GlcNAc(b1-6)[Gal(b1-3)]GalNAc
Method in brief: as §1

[10] = target: Gal(b1-4)GlcNAc(b1-6)[Gal(b1-4)GlcNAc(b1-3)]GalNAc
Method in brief: as §1

Gal(b1-4)GlcNAc6P = target: Gal(b1-4)GlcNAc6P
Method in brief: as §1

Gal(b1-6)Gal = target: Gal(b1-6)Gal
Method in brief: as §1

Gal3S(b1-3)GalNAc = target: Gal3S(b1-3)GalNAc
Method in brief: as §1

Gal3S(b1-3)GlcNAc = target: Gal3S(b1-3)GlcNAc
Method in brief: as §1

[11] = target: Gal3S(b1-3)[Fuc(a1-4)]GlcNAc
Method in brief: as §1

Gal3S(b1-4)Glc = target: Gal3S(b1-4)Glc
Method in brief: as §1

Gal3S(b1-4)Glc6S = target: Gal3S(b1-4)Glc6S
Method in brief: as §1

Gal3S(b1-4)GlcNAc = target: Gal3S(b1-4)GlcNAc
Method in brief: as §1

[12] = target: Gal3S(b1-4)[Fuc(a1-3)]Glc6S
Method in brief: as §1

[13] = target: Gal3S(b1-4)[Fuc(a1-3)]GlcNAc
Method in brief: as §1

[14] = target: Gal3S(b1-4)[Fuc(a1-3)]GlcNAc6S
Method in brief: as §1

Gal3S4S(b1-4)GlcNAc = target: Gal3S4S(b1-4)GlcNAc
Method in brief: as §1

Gal3S6S(b1-4)GlcNAc = target: Gal3S6S(b1-4)GlcNAc
Method in brief: as §1

Gal3S6S(b1-4)GlcNAc6S = target: Gal3S6S(b1-4)GlcNAc6S
Method in brief: as §1

Gal4S(b1-4)GlcNAc = target: Gal4S(b1-4)GlcNAc
Method in brief: as §1

Gal4S6S(b1-4)GlcNAc = target: Gal4S6S(b1-4)GlcNAc
Method in brief: as §1

Gal6P(b1-4)GlcNAc = target: Gal6P(b1-4)GlcNAc
Method in brief: as §1

Gal6S(b1-3)GlcNAc = target: Gal6S(b1-3)GlcNAc
Method in brief: as §1

Gal6S(b1-3)GlcNAc6S = target: Gal6S(b1-3)GlcNAc6S
Method in brief: as §1

Gal6S(b1-4)Glc = target: Gal6S(b1-4)Glc
Method in brief: as §1

Gal6S(b1-4)Glc6S = target: Gal6S(b1-4)Glc6S
Method in brief: as §1

Gal6S(b1-4)GlcNAc = target: Gal6S(b1-4)GlcNAc
Method in brief: as §1

Gal6S(b1-4)GlcNAc6S = target: Gal6S(b1-4)GlcNAc6S
Method in brief: as §1

GalNAc(a1-3)Gal = target: GalNAc(a1-3)Gal
Method in brief: as §1

GalNAc(a1-3)GalNAc = target: GalNAc(a1-3)GalNAc
Method in brief: as §1

[15] = target: GalNAc(a1-3)GalNAc(b1-3)Gal(a1-4)Gal(b1-4)Glc
Method in brief: as §1

[16] = target: GalNAc(a1-3)GalNAc(b1-3)Gal(a1-4)Gal(b1-4)GlcNAc
Method in brief: as §1

GalNAc(b1-3)Gal = target: GalNAc(b1-3)Gal
Method in brief: as §1

[17] = target: GalNAc(b1-3)Gal(a1-4)Gal(b1-4)GlcNAc
Method in brief: as §1

[18] = target: GalNAc(b1-3)Gal(a1-4)Gal(b1-4)GlcNAc(b1-3)Gal(b1-4)Glc
Method in brief: as §1

[19] = target: GalNAc(b1-3)Gal(a1-6)Gal(b1-4)Glc
Method in brief: as §1

GalNAc(b1-3)GalNAc = target: GalNAc(b1-3)GalNAc
Method in brief: as §1

GalNAc(b1-3)GlcNAc = target: GalNAc(b1-3)GlcNAc
Method in brief: as §1

GalNAc(b1-4)Gal(b1-4)Glc = target: GalNAc(b1-4)Gal(b1-4)Glc
Method in brief: as §1

GalNAc(b1-4)GlcNAc = target: GalNAc(b1-4)GlcNAc
Method in brief: as §1

B1: Mermaid1 (Stilbonema majum) (protein)
chain: MGSSHHHHHHSSGLVPRGSHMAASGWLRSPQGTVVKLYRRSLSWSKADEFCKDVDGRLVVDRTADMHLFLIKNVLKEKKSRVWVGLRRTAPHSRTWIWSDGTRQNEDDLDANLWLRDEPNDAAGEEECALFMYSPWEKAWGLNDYLCRGGCRSYQFICEKWIR
Which results are given for B1?
glycan array binding signal (z-score) [1]: -0.763; glycan array binding signal (z-score) [2]: -0.661; glycan array binding signal (z-score) [3]: -0.641; glycan array binding signal (z-score) [4]: -0.7; glycan array binding signal (z-score) [5]: -0.765; glycan array binding signal (z-score) [6]: 0.184; glycan array binding signal (z-score) [7]: -0.814; glycan array binding signal (z-score) [8]: 0.728; glycan array binding signal (z-score) [9]: 0.267; glycan array binding signal (z-score) [10]: -0.135; glycan array binding signal (z-score) (Gal(b1-4)GlcNAc6P): -0.81; glycan array binding signal (z-score) (Gal(b1-6)Gal): 0.106; glycan array binding signal (z-score) (Gal3S(b1-3)GalNAc): -0.374; glycan array binding signal (z-score) (Gal3S(b1-3)GlcNAc): 0.37; glycan array binding signal (z-score) [11]: 0.376; glycan array binding signal (z-score) (Gal3S(b1-4)Glc): 0.598; glycan array binding signal (z-score) (Gal3S(b1-4)Glc6S): 0.205; glycan array binding signal (z-score) (Gal3S(b1-4)GlcNAc): 0.353; glycan array binding signal (z-score) [12]: 1.84; glycan array binding signal (z-score) [13]: 0.074; glycan array binding signal (z-score) [14]: 0.091; glycan array binding signal (z-score) (Gal3S4S(b1-4)GlcNAc): -0.465; glycan array binding signal (z-score) (Gal3S6S(b1-4)GlcNAc): 0.646; glycan array binding signal (z-score) (Gal3S6S(b1-4)GlcNAc6S): -0.524; glycan array binding signal (z-score) (Gal4S(b1-4)GlcNAc): 1.03; glycan array binding signal (z-score) (Gal4S6S(b1-4)GlcNAc): 0.121; glycan array binding signal (z-score) (Gal6P(b1-4)GlcNAc): -0.911; glycan array binding signal (z-score) (Gal6S(b1-3)GlcNAc): -0.891; glycan array binding signal (z-score) (Gal6S(b1-3)GlcNAc6S): 0.285; glycan array binding signal (z-score) (Gal6S(b1-4)Glc): 0.101; glycan array binding signal (z-score) (Gal6S(b1-4)Glc6S): 0.986; glycan array binding signal (z-score) (Gal6S(b1-4)GlcNAc): -0.719; glycan array binding signal (z-score) (Gal6S(b1-4)GlcNAc6S): 0.081; glycan array binding signal (z-score) (GalNAc(a1-3)Gal): -0.641; glycan array binding signal (z-score) (GalNAc(a1-3)GalNAc): -0.917; glycan array binding signal (z-score) [15]: -0.428; glycan array binding signal (z-score) [16]: -0.41; glycan array binding signal (z-score) (GalNAc(b1-3)Gal): -0.447; glycan array binding signal (z-score) [17]: -0.239; glycan array binding signal (z-score) [18]: -0.026; glycan array binding signal (z-score) [19]: -0.59; glycan array binding signal (z-score) (GalNAc(b1-3)GalNAc): -0.091; glycan array binding signal (z-score) (GalNAc(b1-3)GlcNAc): -0.267; glycan array binding signal (z-score) (GalNAc(b1-4)Gal(b1-4)Glc): 1.51; glycan array binding signal (z-score) (GalNAc(b1-4)GlcNAc): 0.87
